Test results reported in PubChem BioAssay AID2685 (National Center for Advancing Translational Sciences (NCATS), 2010).
The other results are listed elsewhere or left out. The main result of the screen is listed elsewhere. These columns were measured beside it and carry no call. The list favours compounds with an active or inconclusive main result. Potencies come from curve fits of mixed quality, noted in brackets.

Assay: qHTS Assay for Lipid Storage Modulators in Drosophila S3 Cells;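 for cell number change: cells counted by Cell Tracker Red CMTPX staining in the red channel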
Conditions: BODIPY lipid droplet fluorescence, 18-24 h; for cell number change: measured here: cell count max response, cells fed with added oleic acid
How it was run: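 Drosophila S3 cells got compounds at several concentrations plus oleic acid (400 uM solution). Laser-scanning cytometry with 488 nm excitation read lipid droplets at 500-530 nm and cells at 575-640 nm. Percent activity was relative to 20 uM Triacsin C.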

[1] = measured here: lipid fluorescence (Fed channel) AC50, cells fed with added oleic acid
[2] = measured here: cell number channel AC50, cells fed with added oleic acid

SMILES	cell number change	AC50 [1]	AC50 [2]
O=C(Cn1c(C2CC2)nc2ccccc2c1=O)Nc1ccc(Br)cc1	-6.21%	2310 nM [falling, partial curve]	–
CCN(Cc1nc2ccccc2c(=O)[nH]1)C(=O)c1cc2c(s1)CCCCC2	-13.4%	–	–
O=C(CNC(=O)c1cccs1)c1ccc(Cl)cc1	-13.2%	–	–
COCCCn1c(SCC(=O)Nc2ccc3c(c2)OCCO3)nnc1-c1ccoc1C	-5.15%	461 nM [rising, full curve, poor fit]	–
CCOc1ccc(N(C(=O)c2ccccc2Cl)C2=NC(C)(C)CS2)cc1	-20.9%	–	–
C#CCOCCOCCOCCNc1nc(N2CCN(C(=O)CCCCCCCCCCNC(=O)[C@@H](CCC(=O)O)n3cc(CCCCCN)nn3)CC2)nc(N2CCN(C(=O)CCCCCCCCCCNC(=O)[C@H](CO)n3cc(CCCSC)nn3)CC2)n1	9.24%	1460 nM [falling, partial curve]	–
Cn1c(=O)n(C)c2cc(NS(=O)(=O)c3ccc4c(c3)CCCC4)ccc21	157%	2310 nM [rising, partial curve]	2310 nM [rising, full curve]
COc1ccccc1C(=O)NCc1ccccn1	49.3%	–	32600 nM [rising, partial curve, poor fit]
COc1ccc(OC)c(C(=O)COC(=O)CN2C(=O)NC3(CCCCC3C)C2=O)c1 (stereo not drawn)	12.6%	4610 nM [rising, partial curve, poor fit]	–
O=C(c1cc(-c2ccncc2)nc2ccc(Br)cc12)N1CCN(Cc2ccc3c(c2)OCO3)CC1	–	13000 nM [rising, single point]	–
COc1cccc2oc3ccc(C#CC4(N)CCCCC4)cc3c(=O)c12	9.39%	29100 nM [rising, single point]	–
CCOC(=O)c1ccc(NC(=O)CN2CCN(c3ccccc3)CC2)cc1	39.7%	2060 nM [rising, full curve]	1030 nM [rising, full curve, poor fit]
Nc1nc2n(n1)C(c1ccco1)CC(c1ccc(F)cc1)N2 (stereo not drawn)	0.759%	–	–
O=C1CCCC2=C1C(c1cccs1)CC(=O)N2c1ccc(F)cc1 (stereo not drawn)	–	6510 nM [falling, single point]	–
CCCc1nn(C)c(C(=O)Nc2ccccc2)c1Cl	7.38%	25900 nM [rising, single point]	–
O=C(Nc1ccc2c(c1)CCC2)Nc1ccccc1F	64.5%	4610 nM [rising, partial curve, poor fit]	25900 nM [rising, partial curve]
O=C(CN1C(=O)NC(c2ccccc2)(c2ccccc2)C1=O)Nc1cccnc1Cl	–	–	5.17 nM [falling, full curve, poor fit]
CCN(C(=O)COC(=O)Cc1c(F)cccc1Cl)c1c(N)n(Cc2ccccc2)c(=O)[nH]c1=O	-4.4%	5.17 nM [falling, full curve, poor fit]	–
O=C(CN1c2ccccc2S(=O)(=O)c2ccccc21)Nc1ccccc1F	-10.3%	–	–

Quoted at random: two compounds from above.
SMILES	cell number change	AC50 [1]	AC50 [2]
O=C(Cn1c(C2CC2)nc2ccccc2c1=O)Nc1ccc(Br)cc1	-6.21%	2310 nM [falling, partial curve]	–
Nc1nc2n(n1)C(c1ccco1)CC(c1ccc(F)cc1)N2 (stereo not drawn)	0.759%	–	–

More records:

SMILES	cell number change	AC50 [1]	AC50 [2]
O=C(NC1CCCCC1)c1ccc2snnc2c1	-11.9%	10300 nM [falling, partial curve]	–
COc1ccc(NC(=O)c2nnn(CC(=O)Nc3ccccc3OC)c2N)c(OC)c1	6.49%	259 nM [rising, full curve]	–
CCN(CC(=O)Nc1ccc(S(=O)(=O)N2CCCCC2)cc1)Cc1ccccc1	-17.6%	14600 nM [falling, partial curve]	–
COc1ccccc1NC(=O)c1nnn(Cc2ccccc2)c1NC(=O)C(F)(F)F	12.7%	820 nM [rising, single point]	–
CN(C)c1nc(F)c(F)c(S(=O)(=O)c2ccccc2)c1F	15.3%	29100 nM [rising, single point]	–
N#CC(C(=O)Nc1ccc(Cl)cc1)=C1Nc2ccccc2N1	-55.4%	18400 nM [falling, single point]	23100 nM [falling, partial curve]
CC(=O)NC1=NC(=O)/C(=C/N2CCCCC2)S1	-195%	–	29100 nM [falling, single point]
Clc1c(-c2ccccc2)nnn1-c1ccccc1	38.3%	16400 nM [falling, partial curve, poor fit]	9200 nM [rising, partial curve]
CCc1ccc(C(=O)/C=C/Nc2ccc(S(=O)(=O)Nc3cnc4ccccc4n3)cc2)cc1	14.9%	3660 nM [rising, full curve, poor fit]	1840 nM [rising, partial curve, poor fit]
CCC(C(=O)N1CCN(S(=O)(=O)c2sc(C(=O)O)c(C)c2C(=O)O)CC1)c1ccccc1 (stereo not drawn)	13.2%	206 nM [rising, full curve, poor fit]	–
Cc1[nH]n(-c2ccccc2)c(=O)c1S(=O)(=O)c1ccccc1	2.31%	23.1 nM [falling, full curve, poor fit]	–
Cc1cc(C)nc(SCC(=O)c2ccc(F)c(C)c2)n1	0.0473%	6510 nM [rising, single point]	–
Cn1nc(C(=O)N2CCc3ccccc32)c2ccccc2c1=O	-21.6%	–	651 nM [rising, single point]
CCN(CC)C(=O)c1[nH]cnc1C(=O)Nc1ccon1	13.4%	92 nM [rising, full curve, poor fit]	–
COc1ccc(NC(=O)c2cnn(-c3ccccc3)c2C)cc1	8.76%	–	–
CC(OC(=O)CN(C)S(=O)(=O)c1ccc(Cl)cc1)C(=O)Nc1ccc(N2CCOCC2)cc1 (stereo not drawn)	-7.33%	92 nM [falling, full curve, poor fit]	–
O=C(CSc1ccccc1)Nc1ccc(N2CCOCC2)cc1	-3.8%	–	–
S=C(Nc1ccccc1Cl)NC1CC2CCCC(C1)N2C1CC1 (stereo not drawn)	–	1160 nM [falling, partial curve, poor fit]	1160 nM [falling, single point]
COc1ccc(OC)c(N(CC(=O)NC2CCCC2)S(=O)(=O)c2ccc(OC)c(OC)c2)c1	-32.4%	1640 nM [falling, partial curve, poor fit]	7310 nM [falling, partial curve, poor fit]
